Data reported in US12024715B2, “Compositions and methods for improved T cells” (Temple University-Of The Commonwealth System of Higher …, priority 2017, dated 2024).

Test system: Ezh2
Assay: RNAseq analysis of activated Ezh2−/− versus WT CD8 T cells (anti-CD3/CD28 Abs and IL-2, 3 days)
Format: cell-based, mouse

Ccl4
Activated Ezh2−/− CD8 (RNAseq expression value of the listed gene in activated Ezh2−/− CD8 T cells): 619.718 | Activated WT CD8 (RNAseq expression value of the listed gene in activated WT CD8 T cells): 258.104 | fold change (gene expression, activated Ezh2−/− CD8 T cells versus WT CD8 T cells): 2.401
